Targets include EGFP-Atg14 (UniProt Q6ZNE5); EGFP-VAMP7 (UniProt P51809); EGFP-SNAP29 (UniProt O95721).
Holding throughout (assay): FRET or BRET
For assay [1], the target named is T1, EGFP-VAMP8 (human), Q9BV40.
T1 chain: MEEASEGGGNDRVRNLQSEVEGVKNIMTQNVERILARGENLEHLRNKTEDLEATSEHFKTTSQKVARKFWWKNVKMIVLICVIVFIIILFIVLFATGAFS
As to conditions: remark: other sources report otherwise.

Amino acid sequences for entries named in this document (tags omitted). A change or cut given only in a name is not applied to a line headed by its entry.
UniProt Q6ZNE5, whole entry: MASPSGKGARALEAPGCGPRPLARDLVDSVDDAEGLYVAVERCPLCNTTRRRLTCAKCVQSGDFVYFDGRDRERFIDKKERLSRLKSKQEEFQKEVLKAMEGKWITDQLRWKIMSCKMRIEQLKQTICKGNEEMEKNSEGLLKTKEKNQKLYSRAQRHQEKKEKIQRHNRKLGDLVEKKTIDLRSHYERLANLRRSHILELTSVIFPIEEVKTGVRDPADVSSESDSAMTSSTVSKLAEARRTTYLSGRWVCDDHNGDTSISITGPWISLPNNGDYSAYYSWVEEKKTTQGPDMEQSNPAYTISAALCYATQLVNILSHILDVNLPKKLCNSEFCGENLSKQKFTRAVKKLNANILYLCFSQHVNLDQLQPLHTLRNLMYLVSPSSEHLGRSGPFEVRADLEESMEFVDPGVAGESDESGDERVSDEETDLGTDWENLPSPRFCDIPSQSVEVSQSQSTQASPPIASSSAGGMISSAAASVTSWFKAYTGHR
UniProt O95721, whole entry: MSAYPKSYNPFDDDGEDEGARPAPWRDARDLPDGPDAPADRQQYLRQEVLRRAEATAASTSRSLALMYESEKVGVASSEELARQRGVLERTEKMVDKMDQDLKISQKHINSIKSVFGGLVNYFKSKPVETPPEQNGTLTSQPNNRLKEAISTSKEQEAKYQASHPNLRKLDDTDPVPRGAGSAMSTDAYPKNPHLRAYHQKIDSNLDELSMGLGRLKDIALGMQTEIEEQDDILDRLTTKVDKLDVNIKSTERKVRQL

Another assay has as its target T2, EGFP-VAMP7, P51809.
T2 chain: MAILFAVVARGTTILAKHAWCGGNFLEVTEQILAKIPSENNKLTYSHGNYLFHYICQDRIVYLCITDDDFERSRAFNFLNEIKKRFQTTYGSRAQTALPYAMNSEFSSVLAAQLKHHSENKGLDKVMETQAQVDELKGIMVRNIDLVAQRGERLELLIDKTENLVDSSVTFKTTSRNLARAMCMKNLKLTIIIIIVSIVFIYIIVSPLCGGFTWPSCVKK
As to conditions: remark: other sources report otherwise.

Results are given in words; binding and its absence hold for the method and conditions named. Binding seen in cells or lysates may run through a third protein. Some entries that bind do so weakly or less than the wild type. For some of these results: Where a sequence is shown, tags or fusion partners need not be part of it.

“mCherry-Stx17 (syntaxin 17, wild type) (from UniProt P56962 1-302)”: the binding result in the assay with EGFP-Atg14, in the assay with EGFP-VAMP7 and in the assay with EGFP-SNAP29 was “binds” in each case. For the molecule “mCherry-Stx17[ED3-6K] charge mutant (from UniProt P56962 1-302)”, the binding entry in the assay with EGFP-Atg14, in the assay with EGFP-VAMP7 and in the assay with EGFP-SNAP29 was “binds” in each case. Consider “mCherry-Stx17[Q196G] (from UniProt P56962 1-302)”, for which the binding entry in the assay with EGFP-SNAP29 is “no binding”.

For “mCherry-Stx17[S2A] phosphonull mutant (from UniProt P56962 1-302)”, the binding result with EGFP-Atg14, with EGFP-VAMP7 and with EGFP-SNAP29 was “binds” in each case. Consider “mCherry-Stx17[S2E] phosphomimetic mutant (from UniProt P56962 1-302)”, for which the binding entry with EGFP-Atg14 was “binds”.

B1: mCherry-Stx17 (syntaxin 17, wild type), P56962 1-302 (protein)
chain: MSEDEEKVKLRRLEPAIQKFIKIVIPTDLERLRKHQINIEKYQRCRIWDKLHEEHINAGRTVQQLRSNIREIEKLCLKVRKDDLVLLKRMIDPVKEEASAATAEFLQLHLESVEELKKQFNDEETLLQPPLTRSMTVGGAFHTTEAEASSQSLTQIYALPEIPQDQNAAESWETLEADLIELSQLVTDFSLLVNSQQEKIDSIADHVNSAAVNVEEGTKNLGKAAKYKLAALPVAGALIGGMVGGPIGLLAGFKVAGIAAALGGGVLGFTGGKLIQRKKQKMMEKLTSSCPDLPSQTDKKCS
Turning to B1, the binding entry in assay [1] is on record as “no binding”.

B2: mCherry-Stx17[Q196G], P56962 1-302 (protein)
chain: MSEDEEKVKLRRLEPAIQKFIKIVIPTDLERLRKHQINIEKYQRCRIWDKLHEEHINAGRTVQQLRSNIREIEKLCLKVRKDDLVLLKRMIDPVKEEASAATAEFLQLHLESVEELKKQFNDEETLLQPPLTRSMTVGGAFHTTEAEASSQSLTQIYALPEIPQDQNAAESWETLEADLIELSQLVTDFSLLVNSGQEKIDSIADHVNSAAVNVEEGTKNLGKAAKYKLAALPVAGALIGGMVGGPIGLLAGFKVAGIAAALGGGVLGFTGGKLIQRKKQKMMEKLTSSCPDLPSQTDKKCS
For B2, the binding entry with EGFP-VAMP7, P51809 was “no binding”.
